Values from PubChem BioAssay AID504744 (Drosophila RNAi Screening Center, 2011)

- Test: 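Identify dsRNAs that increase or decrease phospho-dAkt after insulin treatment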 (primary screen)
- Cells: Drosophila Kc167 cells
- Reagents: long dsRNA against Drosophila genes, 250 ng dsRNA per well of a 384-well plate
- Timing: 3 days of knock-down, then overnight serum-free starvation before stimulation
- Challenge: bovine insulin at 387 nM for 10 minutes after 12 h without serum
- Measured: 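In-cell antibody fluorescence for phospho-dAkt in each well over DNA-dye signal, with log2 residuals expressed as z-scores adjusted for cell count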
- Rule for the call: 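Under insulin, a gene counts as a hit if the average z-score of two replicates lies above 2.5 or below -2.5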
The deposit covers about 23,000 reagents; shown is an unselected part of those with a known target gene and a result. In the full data, 98 (0.43%) are marked active. 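Only hit calls are given; the phospho-dAkt signals, z-scores and hit direction were not deposited.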 Names joined by + are all predicted targets of the reagent.

| predicted target | amplicon | Call |
| --- | --- | --- |
| His3:CG33818 + His3:CG33857 + His3:CG33806 + 20 more | DRSC21267 | inactive |
| CG10764 | DRSC06000 | inactive |
| Isha (Insulator su(Hw) mRNA adaptor) | DRSC04456 | inactive |
| dsd (distracted) | DRSC13829 | inactive |
| dsd (distracted) | DRSC15850 | inactive |
| Polr2L (RNA polymerase II, I and III subunit L) | DRSC14630 | inactive |
| SerRS (Seryl-tRNA synthetase) | DRSC00496 | inactive |
| Reps (RALBP1 associated Eps domain containing) | DRSC02940 | inactive |
| CG42450 | DRSC20022 | inactive |
| CG42450 | DRSC22751 | inactive |
| Or85a (Odorant receptor 85a) | DRSC16764 | inactive |
| Traf6 (TNF-receptor-associated factor 6) | DRSC18725 | inactive |
| CG14537 | DRSC02395 | inactive |
| sNPF-R (short neuropeptide F receptor) | DRSC10836 | inactive |
| CG4730 | DRSC15633 | inactive |
| MsR1 (Myosuppressin receptor 1) | DRSC08615 | inactive |
| hydra | DRSC20497 | inactive |
| CheB93a (Chemosensory protein B 93a) | DRSC15044 | inactive |
| CG2116 | DRSC18206 | inactive |
| CG4042 | DRSC11751 | inactive |
| mv (mauve) | DRSC08208 | inactive |
| mv (mauve) | DRSC08570 | inactive |
| CG4960 | DRSC15684 | inactive |
| Sps1 (Selenophosphate synthetase 1) | DRSC07549 | inactive |
| Arp2 (Actin-related protein 2) | DRSC19332 | inactive |
| Cpr47Ee (Cuticular protein 47Ee) | DRSC06343 | inactive |
| CG10005 | DRSC14172 | inactive |
| Adgf-D (Adenosine deaminase-related growth factor D) | DRSC16521 | inactive |
| tst + CG10375 | DRSC14237 | inactive |
| Irp-1A (Iron regulatory protein 1A) | DRSC16719 | inactive |
| nord | DRSC04210 | inactive |
| nord | DRSC04361 | inactive |
| CG3198 | DRSC18292 | inactive |
| sbr (small bristles) | DRSC19770 | inactive |
| sbr (small bristles) | DRSC20368 | inactive |
| Pvf3 (PDGF- and VEGF-related factor 3) | DRSC02284 | inactive |
| Pvf3 (PDGF- and VEGF-related factor 3) | DRSC02285 | inactive |
| Pvf3 (PDGF- and VEGF-related factor 3) | DRSC02286 | inactive |
| Pvf3 (PDGF- and VEGF-related factor 3) | DRSC02751 | inactive |
| PolQ (DNA polymerase theta) | DRSC17006 | inactive |
| CG14185 | DRSC10184 | inactive |
| CG14408 | DRSC19595 | inactive |
| CG5815 | DRSC14135 | inactive |
| CG9702 | DRSC16540 | inactive |
| Ski6 | DRSC02491 | inactive |
| CG30466 | DRSC05556 | inactive |
| CG2641 | DRSC15441 | inactive |
| sau (sauron) | DRSC00694 | inactive |
| PolD1 (DNA polymerase delta subunit 1) | DRSC11138 | inactive |
| eIF3d2 (eukaryotic translation initiation factor 3 subunit d2) | DRSC15651 | inactive |
| Golgin84 (Golgin-84) | DRSC15269 | inactive |
| Aps (Aps pyrophosphatase) | DRSC10629 | inactive |
| CG10126 | DRSC14191 | inactive |
| Cec2 (Cecropin 2) | DRSC21885 | inactive |
| CG31219 | DRSC15140 | inactive |
| sinu (sinuous) | DRSC09752 | inactive |
| Osi7 (Osiris 7) | DRSC12176 | inactive |
| Pi3K21B | DRSC00771 | active |
| RyR (Ryanodine receptor) | DRSC07543 | inactive |
| SmF (Small ribonucleoprotein particle protein SmF) | DRSC07397 | inactive |
| yellow-h | DRSC17141 | inactive |
| CG10730 | DRSC02102 | inactive |
| Atg4b (Autophagy-related 4b) | DRSC15988 | inactive |
| CG12069 | DRSC14470 | inactive |
| Rgk3 (Rad, Gem/Kir family member 3) | DRSC04250 | inactive |
| Rgk3 (Rad, Gem/Kir family member 3) | DRSC04251 | inactive |
| Rgk3 (Rad, Gem/Kir family member 3) | DRSC04254 | inactive |
| Rgk3 (Rad, Gem/Kir family member 3) | DRSC04255 | inactive |
| CG9162 (retired record) | DRSC03151 | inactive |
| CG33459 | DRSC05615 | inactive |
| term (terminus) | DRSC21730 | inactive |
| CG8563 | DRSC10996 | inactive |
| RpL7 (Ribosomal protein L7) | DRSC03417 | inactive |
| CanA-14F (Calcineurin A at 14F) | DRSC20211 | inactive |
| ATPsynF (ATP synthase, subunit F) | DRSC04482 | inactive |
| Rab9D + Rab9Fa + Rab9E | DRSC19853 | inactive |
| otp (orthopedia) | DRSC04050 | inactive |
| otp (orthopedia) | DRSC04707 | inactive |
| saturn | DRSC09303 | inactive |
| otk (off-track) | DRSC07658 | inactive |
| CG11629 | DRSC03695 | inactive |
| CG34301 | DRSC12704 | inactive |
| PIG-Q (Phosphatidylinositol glycan anchor biosynthesis class Q) | DRSC19138 | inactive |
| Ilp2 (Insulin-like peptide 2) | DRSC10968 | inactive |
| CG18048 | DRSC12573 | inactive |
| GatC + PolG2 | DRSC03312 | inactive |
| Hers + amn | DRSC20306 | inactive |
| CG17118 | DRSC02579 | inactive |
| CR42548 (pseudo) | DRSC09514 | inactive |
| Rrp46 | DRSC15537 | inactive |
| CG15760 | DRSC19725 | inactive |
| CG16965 | DRSC02547 | inactive |
| Paip2 (polyA-binding protein interacting protein 2) | DRSC14504 | inactive |
| CG3062 | DRSC18572 | inactive |
| NPF (neuropeptide F) | DRSC17019 | inactive |
| cal1 (chromosome alignment defect 1) | DRSC15725 | inactive |
| Dnai2 (dynein, axonemal, intermediate chain 2) | DRSC10575 | inactive |
| SLC22A (SLC22A family member) | DRSC11826 | inactive |
| SLC22A (SLC22A family member) | DRSC11827 | inactive |
| ND-30 (NADH dehydrogenase (ubiquinone) 30 kDa subunit) | DRSC08243 | inactive |
| CG6295 | DRSC16012 | inactive |
| CG7542 | DRSC10868 | inactive |
| Cpr50Ca (Cuticular protein 50Ca) | DRSC05454 | inactive |
| Cpr50Ca (Cuticular protein 50Ca) | DRSC06372 | inactive |
| Cpr50Ca (Cuticular protein 50Ca) | DRSC06375 | inactive |
| natalisin | DRSC14966 | inactive |
| natalisin | DRSC14967 | inactive |
| CG15602 | DRSC19671 | inactive |
| nahoda | DRSC03954 | inactive |
| nahoda | DRSC04126 | inactive |
| CG18476 | DRSC15281 | inactive |
| CG31960 | DRSC00281 | inactive |
| RabX2 | DRSC18234 | inactive |
| PpN58A (Protein phosphatase N at 58A) | DRSC04642 | inactive |
| CG4073 | DRSC15542 | inactive |
| CG9775 | DRSC12330 | inactive |
| CG9775 | DRSC22667 | inactive |
| CG8677 | DRSC03107 | inactive |
| CG13159 | DRSC06283 | inactive |
| chp (chaoptin) | DRSC16925 | inactive |
| BtbVII (BTB-protein-VII) | DRSC08151 | inactive |
| BtbVII (BTB-protein-VII) | DRSC08415 | inactive |
| CG6749 | DRSC10704 | inactive |
| spaw (spacewatch) | DRSC06824 | inactive |
| Mst84Db (Male-specific RNA 84Db) | DRSC12542 | inactive |
| Mst84Db (Male-specific RNA 84Db) | DRSC12598 | inactive |

Looked up above:
For “Call”, Paip2 (polyA-binding protein interacting protein 2) [DRSC14504] reads inactive
Value of CheB93a (Chemosensory protein B 93a) [DRSC15044] under “Call”: inactive
Rgk3 (Rad, Gem/Kir family member 3) [DRSC04254], Call → inactive
Value of CG14408 [DRSC19595] under “Call”: inactive
For “Call”, natalisin [DRSC14967] shows inactive
nord [DRSC04361], Call: inactive

Further reagents follow:
| predicted target | amplicon | Call |
| --- | --- | --- |
| wcy (wacky) | DRSC20132 | inactive |
| Kap-alpha3 (karyopherin alpha3) | DRSC16976 | inactive |
| Ube4B (Ubiquitination factor E4B) | DRSC03277 | inactive |
| gkt (glaikit) | DRSC00821 | inactive |
| Neu2 (Neuroectoderm-expressed 2) | DRSC11819 | inactive |
| CG13024 | DRSC09904 | inactive |
| CG3108 | DRSC18280 | inactive |
| CG8852 | DRSC00719 | inactive |
| CG13511 | DRSC04153 | inactive |
| Sptz (Spastizin) | DRSC15758 | inactive |
| futsch | DRSC17688 | inactive |
| futsch | DRSC17949 | inactive |
| futsch | DRSC17952 | inactive |
| futsch | DRSC18543 | inactive |
| Sgs5 (Salivary gland secretion 5) | DRSC16862 | inactive |
| Tbca (Tubulin binding cofactor A) | DRSC15395 | inactive |
| CG10555 | DRSC17748 | inactive |
| Cyp6a19 (Cytochrome P450 6a19) | DRSC07379 | inactive |
| dysf (dysfusion) | DRSC14529 | inactive |
| dysf (dysfusion) | DRSC14895 | inactive |
| dysf (dysfusion) | DRSC14896 | inactive |
| dysf (dysfusion) | DRSC14897 | inactive |
| CG10651 | DRSC02086 | inactive |
| CG14160 | DRSC10161 | inactive |
| CR12798 (pseudo) | DRSC21078 | inactive |
| d4 | DRSC04881 | inactive |
| d4 | DRSC22674 | inactive |
| Jon65Ai (Jonah 65Ai) | DRSC09731 | inactive |
| CG8476 | DRSC16426 | inactive |
| CG13252 | DRSC11700 | inactive |
| Pgm1 (Phosphoglucose mutase 1) | DRSC10490 | inactive |
| hpRNA:CR18854 (hairpin RNA:CR18854) | DRSC02702 | inactive |
| Golgin104 (Golgin 104) | DRSC10459 | inactive |
| slgA (sluggish A) | DRSC20586 | inactive |
| CG32669 | DRSC18864 | inactive |
| CG8768 | DRSC07259 | inactive |
| Cyp6t3 (Cytochrome P450 6t3) | DRSC07388 | inactive |
| PIG-Wb (Phosphatidylinositol glycan anchor biosynthesis class W b) | DRSC08526 | inactive |
| CG13360 | DRSC18536 | inactive |
| edl (ETS-domain lacking) | DRSC06516 | inactive |
| alphaKap4 (alpha Karyopherin-4) | DRSC09823 | inactive |
| CG13043 | DRSC09924 | inactive |
| Eglp4 (Entomoglyceroporin 4) | DRSC04438 | inactive |
| CG42758 | DRSC10021 | inactive |
| CG13748 | DRSC06419 | inactive |
| Drep3 (DNA fragmentation factor-related protein 3) | DRSC06312 | inactive |
| Drep3 (DNA fragmentation factor-related protein 3) | DRSC07529 | inactive |
| Drep3 (DNA fragmentation factor-related protein 3) | DRSC22344 | inactive |
| RpS8 (Ribosomal protein S8) | DRSC16318 | inactive |
| Rac2 | DRSC11262 | inactive |
| Vsx2 (Visual system homeobox 2) | DRSC17397 | inactive |
| Vsx2 (Visual system homeobox 2) | DRSC18087 | inactive |
| Vsx2 (Visual system homeobox 2) | DRSC18088 | inactive |
| Vsx2 (Visual system homeobox 2) | DRSC18089 | inactive |
| CG10340 | DRSC14232 | inactive |
| CG8128 | DRSC20084 | inactive |
| fs(1)h (female sterile (1) homeotic) | DRSC18778 | inactive |
| CG15450 | DRSC20522 | inactive |
| spdo (sanpodo) | DRSC13988 | inactive |
| Grasp65 | DRSC10917 | inactive |
| CG31928 | DRSC00293 | inactive |
| CG34049 | DRSC00104 | inactive |
| CG33090 | DRSC01908 | inactive |
| mab-21 | DRSC18791 | inactive |
| CG43736 + CG33692 (retired record) | DRSC18370 | inactive |
| CG43736 + CG33692 (retired record) | DRSC18371 | inactive |
| sim (single-minded) | DRSC17054 | inactive |
| D2hgdh (D-2-hydroxyglutaric acid dehydrogenase) | DRSC18577 | inactive |
| AMPdeam (AMP deaminase) | DRSC18996 | inactive |
| AMPdeam (AMP deaminase) | DRSC19366 | active |
| AMPdeam (AMP deaminase) | DRSC19368 | inactive |
| AMPdeam (AMP deaminase) | DRSC19727 | inactive |
| DCTN3-p24 (Dynactin 3, p24 subunit) | DRSC04592 | inactive |
| Rh3 (Rhodopsin 3) | DRSC16822 | inactive |
